{"source": "PubChem BioAssay AID1053208 (Peter MacCallum Cancer Centre, 2014)", "screen": "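Find knock-downs that sensitise mouse osteosarcoma cells to doxorubicin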 (primary screen)", "cell system": "mouse osteosarcoma cells, early-passage culture from an engineered mouse model of fibroblastic bone tumour", "reagents": "siRNA pool against mouse genes, 40 nM", "time to read-out": "about 120 h (48 h before drug, then 72 h with drug)", "challenge": "doxorubicin 100 nM for 72 h, roughly 30-40% inhibitory dose", "read-out": "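Viability read as ATP luminescence after 72 h of 100 nM doxorubicin or none, duplicate wells averaged, scaled to non-targeting siRNA, then expressed as robust z-scores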", "direction": "viability z-score with doxorubicin: higher = more viable cells under doxorubicin; viability z-score without drug: higher = more viable cells with knock-down alone", "call rule": "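a pool counts as active when its viability z-score with doxorubicin is -2 or below and its z-score without drug lies between -2 and 2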", "note": "Here is an unselected part of about 17,000 reagents tested. 788 of all reagents (4.7%) were called active. 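Calls rest on z-score classes alone; an extra cut-off of viability at most 70% of control was not applied to them.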 The numbers tell different reagents against one gene apart. Not all columns of the deposit are shown."}
{"target gene": "Or12d12 (olfactory receptor family 12 subfamily D member 12)", "reagent": 1, "combined z-score class": "no change with or without drug", "viability z-score with doxorubicin": -1.35, "viability z-score without drug": -0.51, "Outcome": "inactive"}
{"target gene": "Vmn1r-ps8 (vomeronasal 1 receptor, pseudogene 8)", "reagent": 1, "combined z-score class": "no change with or without drug", "viability z-score with doxorubicin": 0.67, "viability z-score without drug": -0.51, "Outcome": "inactive"}
{"target gene": "Usp39 (ubiquitin specific peptidase 39)", "reagent": 1, "combined z-score class": "no change with or without drug", "viability z-score with doxorubicin": -1.57, "viability z-score without drug": -1.35, "Outcome": "inactive"}
{"target gene": "Dpysl3 (dihydropyrimidinase-like 3)", "reagent": 1, "combined z-score class": "no change with or without drug", "viability z-score with doxorubicin": -0.22, "viability z-score without drug": 0.51, "Outcome": "inactive"}
{"target gene": "Ceacam10 (CEA cell adhesion molecule 10)", "reagent": 1, "combined z-score class": "low cell count with doxorubicin only", "viability z-score with doxorubicin": -2.14, "viability z-score without drug": -0.51, "Outcome": "active"}
{"target gene": "Dkk3 (dickkopf WNT signaling pathway inhibitor 3)", "reagent": 1, "combined z-score class": "no change with or without drug", "viability z-score with doxorubicin": -0.34, "viability z-score without drug": 1.18, "Outcome": "inactive"}
{"target gene": "Ssh1 (slingshot protein phosphatase 1)", "reagent": 1, "combined z-score class": "no change with or without drug", "viability z-score with doxorubicin": -1.12, "viability z-score without drug": -0.34, "Outcome": "inactive"}
{"target gene": "Dcun1d3 (defective in cullin neddylation 1 domain containing 3)", "reagent": 1, "combined z-score class": "no change with or without drug", "viability z-score with doxorubicin": -1.46, "viability z-score without drug": -1.18, "Outcome": "inactive"}

Only “combined z-score class” (2 entries from above):
Ssh1 (slingshot protein phosphatase 1) = no change with or without drug
Dcun1d3 (defective in cullin neddylation 1 domain containing 3) = no change with or without drug

More reagents follow.
{"target gene": "Ppargc1a", "reagent": 1, "combined z-score class": "no change with or without drug", "viability z-score with doxorubicin": -0.67, "viability z-score without drug": 0.84, "Outcome": "inactive"}
{"target gene": "Ppargc1a", "reagent": 2, "combined z-score class": "no change with or without drug", "viability z-score with doxorubicin": 0.11, "viability z-score without drug": -0.67, "Outcome": "inactive"}
{"target gene": "Aimp1", "reagent": 1, "combined z-score class": "no change with or without drug", "viability z-score with doxorubicin": -0.9, "viability z-score without drug": -0.67, "Outcome": "inactive"}
{"target gene": "Leap2 (liver-expressed antimicrobial peptide 2)", "reagent": 1, "combined z-score class": "no change with or without drug", "viability z-score with doxorubicin": 0.67, "viability z-score without drug": 0.51, "Outcome": "inactive"}
